{"source": "patent US12344584B2", "about": "“KCNQ potentiators” (Eli Lilly and Company, priority 2019, dated 2025)", "origin": "cited, not measured here", "test_system": "motor neurons derived from pluripotent stem cells from ALS patients", "conditions": "added to stem cell-derived neurons of ALS patients; cited from earlier work", "note": "For at least one compound, name, drawing or mass did not settle the structure."}
{"smiles": "CCOC(=O)Nc1ccc(NCc2ccc(F)cc2)nc1N", "note": "[Flupirtine, flupirtine, reference compound]", "values": [{"measurement": "hyperexcitability of the motor neurons", "value": "normalized"}, {"measurement": "in vitro survival of the cells", "value": "increased"}]}
